The target of the test is T1, GST-SCP1 (human) (UniProt Q9GZU7).
T1 sequence: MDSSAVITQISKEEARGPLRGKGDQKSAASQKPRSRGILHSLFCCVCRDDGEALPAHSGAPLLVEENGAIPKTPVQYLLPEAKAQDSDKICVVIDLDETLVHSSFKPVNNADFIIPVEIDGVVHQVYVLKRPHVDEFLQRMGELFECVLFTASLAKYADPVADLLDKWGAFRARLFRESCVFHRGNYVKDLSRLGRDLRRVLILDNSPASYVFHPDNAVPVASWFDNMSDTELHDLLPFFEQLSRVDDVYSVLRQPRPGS
Briefly: direct binding to GST fusion protein; method not described.

Protein sequences, listed by entry. Tags and fused reporters are not part of them.
UniProt P35269: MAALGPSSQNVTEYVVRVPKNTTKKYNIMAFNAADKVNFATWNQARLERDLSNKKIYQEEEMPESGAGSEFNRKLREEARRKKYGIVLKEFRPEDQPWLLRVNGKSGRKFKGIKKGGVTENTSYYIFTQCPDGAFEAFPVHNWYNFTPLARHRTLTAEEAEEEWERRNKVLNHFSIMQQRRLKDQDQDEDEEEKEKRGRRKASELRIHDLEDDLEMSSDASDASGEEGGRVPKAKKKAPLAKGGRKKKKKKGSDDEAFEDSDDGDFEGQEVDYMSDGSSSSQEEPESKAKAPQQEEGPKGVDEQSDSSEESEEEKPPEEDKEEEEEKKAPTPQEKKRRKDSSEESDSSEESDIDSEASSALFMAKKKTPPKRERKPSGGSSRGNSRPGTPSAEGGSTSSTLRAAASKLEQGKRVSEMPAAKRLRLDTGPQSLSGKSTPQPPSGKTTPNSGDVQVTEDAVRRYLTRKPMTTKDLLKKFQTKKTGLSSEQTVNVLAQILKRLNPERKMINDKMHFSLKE

These are yes or no findings as the source states them, for the method shown. Some entries that bind do so weakly or less than the wild type. Sequences can lack the tags named with a protein.

Consider RAP74 (from UniProt P35269 1-517), for which the binding entry is on record as “binds”.

Values taken from US20070172470A1, “Phosphatase regulation of nucleic acid transcription” (The Regents of the University of California, priority 2003, published 2007).
